Measurements from “University of Dundee, Small-Polar-MMV Screening Library” (2021), ChEMBL document CHEMBL3988442.

Protein sequences, listed by entry. Tags and fused reporters are not part of them. Residues count along the entry.
UniProt Q4DA54, 1-478: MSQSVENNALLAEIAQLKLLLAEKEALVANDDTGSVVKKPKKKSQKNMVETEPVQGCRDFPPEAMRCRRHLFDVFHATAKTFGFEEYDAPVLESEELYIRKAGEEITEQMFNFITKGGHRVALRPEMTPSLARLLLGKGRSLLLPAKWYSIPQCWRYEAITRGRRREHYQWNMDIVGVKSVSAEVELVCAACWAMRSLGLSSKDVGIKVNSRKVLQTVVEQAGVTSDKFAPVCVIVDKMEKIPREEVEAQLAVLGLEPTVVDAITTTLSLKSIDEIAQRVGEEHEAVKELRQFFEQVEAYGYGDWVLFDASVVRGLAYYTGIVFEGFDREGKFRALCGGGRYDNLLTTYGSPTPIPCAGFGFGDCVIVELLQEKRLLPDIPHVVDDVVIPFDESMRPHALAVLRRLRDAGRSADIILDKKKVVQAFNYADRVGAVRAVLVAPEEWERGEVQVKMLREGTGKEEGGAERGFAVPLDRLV
UniProt P9WFT3, whole entry: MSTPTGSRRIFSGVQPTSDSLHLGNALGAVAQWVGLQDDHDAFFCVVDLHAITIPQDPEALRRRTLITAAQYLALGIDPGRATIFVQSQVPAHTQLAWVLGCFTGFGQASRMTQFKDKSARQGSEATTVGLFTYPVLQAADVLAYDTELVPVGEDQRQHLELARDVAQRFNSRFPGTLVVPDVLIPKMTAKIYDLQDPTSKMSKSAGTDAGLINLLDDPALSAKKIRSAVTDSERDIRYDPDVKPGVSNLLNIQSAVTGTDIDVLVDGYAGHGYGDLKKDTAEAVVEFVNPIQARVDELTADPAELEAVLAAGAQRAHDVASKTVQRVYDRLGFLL
UniProt I6X8D2, whole entry: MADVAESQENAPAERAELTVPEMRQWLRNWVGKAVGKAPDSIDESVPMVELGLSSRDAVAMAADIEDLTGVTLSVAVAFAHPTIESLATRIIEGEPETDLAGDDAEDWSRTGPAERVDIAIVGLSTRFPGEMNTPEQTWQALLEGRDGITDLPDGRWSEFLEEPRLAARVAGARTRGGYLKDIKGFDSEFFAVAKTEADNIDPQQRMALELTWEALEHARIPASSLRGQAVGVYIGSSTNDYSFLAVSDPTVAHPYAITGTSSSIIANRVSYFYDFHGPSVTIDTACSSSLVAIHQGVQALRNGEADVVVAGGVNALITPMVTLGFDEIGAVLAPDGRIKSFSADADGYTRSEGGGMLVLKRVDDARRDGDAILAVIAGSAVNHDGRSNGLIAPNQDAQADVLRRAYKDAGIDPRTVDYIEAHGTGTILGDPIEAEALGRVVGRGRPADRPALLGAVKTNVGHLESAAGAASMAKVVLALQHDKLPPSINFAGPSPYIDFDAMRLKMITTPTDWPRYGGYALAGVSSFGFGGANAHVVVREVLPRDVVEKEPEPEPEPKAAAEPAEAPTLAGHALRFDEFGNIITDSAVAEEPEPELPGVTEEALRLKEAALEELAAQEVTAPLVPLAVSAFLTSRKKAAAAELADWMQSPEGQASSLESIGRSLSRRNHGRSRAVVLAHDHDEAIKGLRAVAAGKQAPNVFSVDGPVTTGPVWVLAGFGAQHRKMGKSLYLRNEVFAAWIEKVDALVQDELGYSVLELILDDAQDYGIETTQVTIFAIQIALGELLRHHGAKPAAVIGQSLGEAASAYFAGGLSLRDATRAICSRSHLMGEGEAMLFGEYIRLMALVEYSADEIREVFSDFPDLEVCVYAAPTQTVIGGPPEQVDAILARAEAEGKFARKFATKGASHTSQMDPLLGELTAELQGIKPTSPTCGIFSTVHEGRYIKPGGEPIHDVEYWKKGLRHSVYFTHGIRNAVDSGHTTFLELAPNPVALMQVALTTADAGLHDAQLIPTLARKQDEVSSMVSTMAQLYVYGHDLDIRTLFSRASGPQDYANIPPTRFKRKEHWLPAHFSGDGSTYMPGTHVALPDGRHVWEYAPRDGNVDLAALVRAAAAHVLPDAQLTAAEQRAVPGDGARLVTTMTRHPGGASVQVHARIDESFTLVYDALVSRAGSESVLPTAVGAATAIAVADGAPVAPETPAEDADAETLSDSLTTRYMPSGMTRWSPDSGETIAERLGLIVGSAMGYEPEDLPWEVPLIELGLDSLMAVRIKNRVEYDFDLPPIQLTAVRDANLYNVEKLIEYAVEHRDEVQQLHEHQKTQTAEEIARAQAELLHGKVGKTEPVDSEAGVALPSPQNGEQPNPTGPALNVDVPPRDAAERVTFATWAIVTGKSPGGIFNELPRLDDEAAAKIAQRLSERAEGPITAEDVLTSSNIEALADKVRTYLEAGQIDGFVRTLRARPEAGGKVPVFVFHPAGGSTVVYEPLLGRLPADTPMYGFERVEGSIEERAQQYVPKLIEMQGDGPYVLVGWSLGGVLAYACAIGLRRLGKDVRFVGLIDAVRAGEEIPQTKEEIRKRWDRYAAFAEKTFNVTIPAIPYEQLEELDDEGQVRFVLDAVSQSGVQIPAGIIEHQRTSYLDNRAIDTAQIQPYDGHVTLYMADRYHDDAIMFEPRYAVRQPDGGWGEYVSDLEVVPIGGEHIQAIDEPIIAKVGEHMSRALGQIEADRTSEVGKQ
UniProt Q8IDJ8, 1-583: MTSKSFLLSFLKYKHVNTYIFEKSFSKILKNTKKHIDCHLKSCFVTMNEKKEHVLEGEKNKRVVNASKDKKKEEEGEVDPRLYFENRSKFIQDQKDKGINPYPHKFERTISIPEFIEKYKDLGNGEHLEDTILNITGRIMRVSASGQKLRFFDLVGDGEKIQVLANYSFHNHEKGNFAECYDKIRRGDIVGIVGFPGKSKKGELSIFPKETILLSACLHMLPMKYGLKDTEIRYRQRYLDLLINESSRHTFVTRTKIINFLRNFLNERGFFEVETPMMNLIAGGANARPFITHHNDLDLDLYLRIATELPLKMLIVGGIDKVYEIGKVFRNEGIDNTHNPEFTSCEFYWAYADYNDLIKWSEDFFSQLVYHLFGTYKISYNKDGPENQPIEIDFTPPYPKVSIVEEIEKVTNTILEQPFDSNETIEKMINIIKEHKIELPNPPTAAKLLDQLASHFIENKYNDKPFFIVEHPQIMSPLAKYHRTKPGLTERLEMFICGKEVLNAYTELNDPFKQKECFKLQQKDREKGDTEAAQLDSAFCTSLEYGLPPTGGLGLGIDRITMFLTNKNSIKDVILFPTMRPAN

A: 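Histidine-tRNA ligase, Trypanosoma cruzi CL Brener (UniProt Q4DA54). Enzyme assay of histidyl-tRNA synthetase; the read-out is not stated. Concentration: 30 µM. Higher reads as stronger inhibition (inferred: compounds with an IC50 in retests scored well above the rest). Size under these conditions: about 69,000 compounds, about 31 of them at 50% or above in at least one test.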
B: 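Tryptophan-tRNA ligase, Mycobacterium tuberculosis (UniProt P9WFT3). Enzyme assay of tryptophanyl-tRNA synthetase; the read-out is not stated. Compounds at 10 µM. Higher most likely means stronger inhibition; the record gives no direction and few retests gave an IC50. Of about 65,000 compounds tested this way, about 64 (0.098%) reached 50% or more in at least one test.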
C: 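Polyketide synthase Pks13, Mycobacterium tuberculosis (UniProt I6X8D2). Enzyme assay of the thioesterase domain of polyketide synthase 13; the read-out is not stated. Concentration: 30 µM. The record gives no direction; the compounds picked for IC50 retests had high values, so higher reads as stronger inhibition. Of about 67,000 compounds tested this way, about 300 (0.46%) reached 50% or more in at least one test.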
D: 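Lysine-tRNA ligase, Plasmodium falciparum 3D7 (UniProt Q8IDJ8). Enzyme assay of the cytosolic lysyl-tRNA synthetase in 384-well plates, read by luminescence. Concentration: 30 µM. Higher reads as stronger inhibition, judged from the few compounds that gave an IC50. Of about 69,000 compounds tested this way, about 49 (0.071%) reached 50% or more in at least one test.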
E: 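Assay of Toxoplasma gondii numbers, read through their beta-galactosidase reporter with a colour substrate. Tested at 10 µM. The record gives no direction; the compounds picked for IC50 retests had high values, so higher reads as fewer parasites. About 67,000 compounds were tested under these conditions; 0.38% (about 260) showed 50% or more at least once.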

Results are given as percent effect. The record does not define 0% and 100%; most values in the screen are far below 50% and negative numbers occur (in some assays of this library far below -100). Compounds were drawn at random from those tested, without regard to their results. A dash means the value is not listed here; it may have been measured.

| # | SMILES | A | B | C | D | E |
|---|---|---|---|---|---|---|
| 1 | `Cc1nc(C2CCCN(C(=O)COCc3ccccc3Cl)C2)no1` (stereo unspecified) | 2.642% | -0.08446% | -7.537% | -3.242% | -14.5% |
| 2 | `O=C(Nc1nncs1)C1CSCN1C(=O)C1CCCC1` (stereo unspecified) | 5.319% | -1.625% | -8.558% | 4.889% | -1.873% |
| 3 | `COC(C(=O)NC1CCN(S(C)(=O)=O)CC1)c1ccccc1` (stereo unspecified) | 3.784% | -5.799% | 1.463% | 1.648% | 11.89% |
| 4 | `Cn1cccc1CN1CCC2(CC1)CC(Oc1cccnc1)C2.O=C(O)C(F)(F)F.O=C(O)C(F)(F)F` | - | - | - | - | -8.36% |
| 5 | `O=C(C1CCOCC1)N1CC[C@@H]2[C@H]1CCC(=O)N2c1ccccc1` | 0% | 13.89% | 11.3% | -3.399% | - |
| 6 | `Cc1ccc(C2CCCN2S(=O)(=O)N(C)Cc2nccn2C)o1` (stereo unspecified) | 3.614% | 0.5882% | -21.5% | 5.226% | 0.3958% |
| 7 | `CCS(=O)(=O)N1CCN(CCOC)c2ncccc2C1` | 0% | - | -4.11% | 6.382% | 6.745% |
| 8 | `O=C(CCc1nc2cccnc2[nH]1)Nc1cccnc1` | -1.639% | 0.201% | -22.35% | 9.388% | 0.3586% |
| 9 | `CCc1ncc(C(=O)N(CC)CCOC)cn1` | 1.571% | -3.924% | -21.36% | 4.609% | -20.81% |
| 10 | `O=C(NCC1(O)CCOc2ccccc21)Nc1ccccc1` (stereo unspecified) | 0.4878% | 1.183% | -9.118% | 10.42% | -3.362% |
| 11 | `Cc1ccc(S(=O)(=O)N(CC(N)=O)CC(C)C)cc1C` | 8.333% | 0.7597% | 4.128% | 7.942% | -2.159% |
| 12 | `O=C(O)C(F)(F)F.O=C(O)C(F)(F)F.c1cn2c(n1)CN(CC1CC1)CC(CN1CCOCC1)C2` (stereo unspecified) | - | - | - | - | -11.02% |
| 13 | `Cn1cc(CN2CC[C@@H](O)[C@@H]2Cc2ccccc2)cn1` | 14.71% | -3.909% | -14.74% | 1.366% | -8.494% |
| 14 | `[H][C@@]12CCN(Cc3sccc3C)[C@]1([H])CC[C@@H](C(=O)N1CCCO1)O2` | - | - | - | - | 16.62% |
| 15 | `Cc1nc(-c2ccccc2)n(CC(=O)NCC(C)C)n1` | 4.511% | 5.399% | -4.97% | 6.117% | 2.24% |
| 16 | `N#Cc1cccnc1OC1CCN(C(=O)NCc2ccccc2)CC1` | 3.333% | -0.6861% | 1.92% | 4.054% | -0.7042% |
| 17 | `Cc1nn(C)c(C)c1S(=O)(=O)NCC1(C(N)=O)CCOCC1` | 10.05% | 3.028% | 1.007% | 2.64% | -9.083% |
| 18 | `COc1cc(N2C[C@@H]3COC[C@]3(COc3cccnc3)C2)ncn1` | 0.5525% | 0.4359% | -25.03% | 1.059% | - |
| 19 | `O=C(c1cccc(Cl)c1)N1CCCC(Nc2ccc(F)cc2)C1` (stereo unspecified) | 6.533% | 0.07246% | -6.353% | -1.115% | -8.11% |
| 20 | `CCn1cc(Br)c(C(=O)NCc2cnn(C)c2)n1` | 0% | -1.74% | -14.16% | 2.101% | 12.35% |
| 21 | `CN(CCN(C)S(=O)(=O)CC1CCOCC1)c1ccccc1` | 3.158% | -1.815% | -12.46% | 2.277% | -14.61% |
| 22 | `c1cc(CN2C[C@@H]3OCCN(CC4CCCO4)[C@@H]3C2)cs1` (stereo partly specified) | 10.92% | 0.382% | -16.82% | 4.726% | - |
| 23 | `CN(C)C(C(=O)N1CC(Oc2ccccc2F)C1)c1ccccc1F` (stereo unspecified) | -5.319% | 15.74% | -16.04% | -0.9666% | 2.53% |
| 24 | `CNC(=O)[C@@H]1[C@@H](OC(=O)Nc2ccccc2)C(=O)N(C)C12CCNCC2` | 7.865% | - | -27.21% | 4.166% | -14.98% |
| 25 | `Fc1ccc(CNCC2OCCc3cn(CC4CC4)nc32)cc1.O=C(O)C(F)(F)F.O=C(O)C(F)(F)F` (stereo unspecified) | - | - | - | - | 4.25% |
| 26 | `CC(NC(=O)c1cc(C(C)C)[nH]n1)C(=O)Nc1ccccc1` (stereo unspecified) | 4.762% | -21.07% | -22.04% | -1.846% | -7.871% |
| 27 | `c1ccc(CN2CCCC3(CCN(CC4CCCO4)CC3)C2)nc1` (stereo unspecified) | 4.523% | - | -6.963% | 2.077% | - |
| 28 | `Cc1noc(C2CCCCN2C(=O)NCc2ccco2)n1` (stereo unspecified) | 6.931% | 0.1608% | -3.02% | 10.46% | - |
| 29 | `CN1CCCN(C[C@@H]2CN(C(=O)CC3CCC3)C[C@@H]2CO)CC1` | 0.4484% | -1.356% | -18.43% | 8.234% | 2.139% |
| 30 | `CCOCC1CN(Cc2cnn(C)c2)Cc2nn(CC3CC3)cc21` (stereo unspecified) | 7.438% | -1.046% | -2.97% | 0.5015% | - |
| 31 | `Cc1ccc(CC(=O)NC(C)C(=O)N2CCS(=O)(=O)CC2)s1` (stereo unspecified) | 0.9852% | -1.675% | 0.2568% | 7.929% | -3.161% |
| 32 | `CCNC(=O)N1CCc2ccc(NC(=O)C(C)c3ccsc3)cc21` (stereo unspecified) | 8.173% | 2.524% | -7.252% | 4.52% | 7.249% |
| 33 | `Cc1nc2c(C(=O)O)cccc2n1-c1ccc(C(=O)N2CCCC2)o1` | 9.948% | 5.734% | 5.723% | 2.461% | 3.516% |
| 34 | `Cc1cc(=O)n2ncnc2n1CC(O)c1ccccc1` (stereo unspecified) | 0% | -3.612% | -24.68% | 2.676% | 16.74% |
| 35 | `COc1cccc(COCC(=O)N2CCCC(n3cccn3)C2)c1` (stereo unspecified) | 5.042% | -2.034% | -27.67% | 21.58% | 1.158% |
| 36 | `Cc1noc(C)c1C(=O)N1Cc2ncn(C)c2C(COCC(C)C)C1.O=C(O)C(F)(F)F` (stereo unspecified) | - | - | - | - | 2.431% |
| 37 | `COc1c(C)cnc(CN2CCCC2Cn2nc(C)nc2C)c1C` (stereo unspecified) | 5.143% | -5.272% | -6.48% | 0.5262% | 8.747% |
| 38 | `Cc1ccccc1C(CC(=O)NCc1n[nH]c(N)n1)c1ccccc1` (stereo unspecified) | 9.211% | -1.032% | 2.285% | 4.671% | -3.539% |
| 39 | `CN(C)Cc1noc2c1CN(C(=O)c1ccncc1)CC2.O=C(O)C(F)(F)F.O=C(O)C(F)(F)F` | - | - | - | - | -9.675% |
| 40 | `CC1(c2ncc(CN3CCN(c4ccccn4)CC3)cn2)CCCCO1` (stereo unspecified) | 3.955% | -3.59% | -17.38% | 1.39% | 2.281% |
| 41 | `CCN(Cc1ccncc1)c1nc(C)nc2oc(C)nc12` | 3.933% | -0.09311% | -26.76% | 0.7791% | -2.854% |
| 42 | `CS(=O)(=O)N1CCCC(Cc2cnc(Br)cn2)C1` (stereo unspecified) | -0.7752% | 5.933% | -15.91% | -1.316% | -3.38% |
| 43 | `c1cc(N2CCOCC(Cc3ccc4[nH]ccc4c3)C2)ncn1` (stereo unspecified) | 7.605% | -8.784% | -4.007% | 1.565% | 9.445% |

Once more, the final 3:

{"smiles": "CCN(Cc1ccncc1)c1nc(C)nc2oc(C)nc12", "A": 3.933, "B": -0.09311, "C": -26.76, "D": 0.7791, "E": -2.854}
{"smiles": "CS(=O)(=O)N1CCCC(Cc2cnc(Br)cn2)C1", "stereo": "stereo unspecified", "A": -0.7752, "B": 5.933, "C": -15.91, "D": -1.316, "E": -3.38}
{"smiles": "c1cc(N2CCOCC(Cc3ccc4[nH]ccc4c3)C2)ncn1", "stereo": "stereo unspecified", "A": 7.605, "B": -8.784, "C": -4.007, "D": 1.565, "E": 9.445}